# Laboratory results published in the supplement of paper PMC12823440, “Inhibitors supercharge kinase turnover through native proteolytic circuits” (Nature, 2025).
# Chains of the proteins cited; added tags and fusions are not shown. Lines headed by an entry give the natural chain unless they say otherwise; changes in a name come on top.
# UniProt Q96KB5: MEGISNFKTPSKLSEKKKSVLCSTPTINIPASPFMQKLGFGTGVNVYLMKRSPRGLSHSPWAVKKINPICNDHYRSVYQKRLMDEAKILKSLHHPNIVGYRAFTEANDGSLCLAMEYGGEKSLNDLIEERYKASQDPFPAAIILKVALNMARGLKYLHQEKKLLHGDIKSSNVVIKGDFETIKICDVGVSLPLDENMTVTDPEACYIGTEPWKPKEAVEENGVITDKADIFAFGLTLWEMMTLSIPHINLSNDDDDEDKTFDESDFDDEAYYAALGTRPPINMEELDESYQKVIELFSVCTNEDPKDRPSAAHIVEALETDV
# UniProt P09619, whole entry: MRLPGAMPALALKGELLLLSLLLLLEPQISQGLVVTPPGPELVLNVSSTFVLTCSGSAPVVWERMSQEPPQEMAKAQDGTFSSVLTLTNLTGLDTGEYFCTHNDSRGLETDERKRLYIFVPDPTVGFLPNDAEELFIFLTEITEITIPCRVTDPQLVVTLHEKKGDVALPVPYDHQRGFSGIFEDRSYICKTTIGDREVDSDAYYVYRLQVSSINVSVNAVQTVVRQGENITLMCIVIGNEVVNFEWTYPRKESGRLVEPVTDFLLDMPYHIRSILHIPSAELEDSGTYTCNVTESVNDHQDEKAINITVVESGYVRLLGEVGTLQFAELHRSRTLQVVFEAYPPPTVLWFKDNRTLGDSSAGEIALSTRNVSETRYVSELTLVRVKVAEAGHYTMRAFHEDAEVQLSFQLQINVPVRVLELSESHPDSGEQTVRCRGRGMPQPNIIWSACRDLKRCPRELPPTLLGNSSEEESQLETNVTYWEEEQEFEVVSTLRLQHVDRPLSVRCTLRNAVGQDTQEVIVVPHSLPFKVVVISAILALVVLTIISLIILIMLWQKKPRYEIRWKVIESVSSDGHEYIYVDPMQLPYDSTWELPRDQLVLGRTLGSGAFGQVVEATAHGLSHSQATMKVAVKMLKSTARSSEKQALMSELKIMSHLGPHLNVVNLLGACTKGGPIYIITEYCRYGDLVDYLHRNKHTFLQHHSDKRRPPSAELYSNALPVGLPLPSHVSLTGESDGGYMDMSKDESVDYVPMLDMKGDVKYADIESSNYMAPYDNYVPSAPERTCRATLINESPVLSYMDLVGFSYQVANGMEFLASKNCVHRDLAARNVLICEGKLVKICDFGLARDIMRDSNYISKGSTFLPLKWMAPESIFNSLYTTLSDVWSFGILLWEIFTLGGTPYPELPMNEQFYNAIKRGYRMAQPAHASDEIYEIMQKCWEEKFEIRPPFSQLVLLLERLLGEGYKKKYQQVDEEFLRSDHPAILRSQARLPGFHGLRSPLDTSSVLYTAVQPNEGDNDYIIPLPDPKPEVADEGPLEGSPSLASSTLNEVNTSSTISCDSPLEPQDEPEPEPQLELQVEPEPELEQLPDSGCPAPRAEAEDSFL
# UniProt Q9UBF8: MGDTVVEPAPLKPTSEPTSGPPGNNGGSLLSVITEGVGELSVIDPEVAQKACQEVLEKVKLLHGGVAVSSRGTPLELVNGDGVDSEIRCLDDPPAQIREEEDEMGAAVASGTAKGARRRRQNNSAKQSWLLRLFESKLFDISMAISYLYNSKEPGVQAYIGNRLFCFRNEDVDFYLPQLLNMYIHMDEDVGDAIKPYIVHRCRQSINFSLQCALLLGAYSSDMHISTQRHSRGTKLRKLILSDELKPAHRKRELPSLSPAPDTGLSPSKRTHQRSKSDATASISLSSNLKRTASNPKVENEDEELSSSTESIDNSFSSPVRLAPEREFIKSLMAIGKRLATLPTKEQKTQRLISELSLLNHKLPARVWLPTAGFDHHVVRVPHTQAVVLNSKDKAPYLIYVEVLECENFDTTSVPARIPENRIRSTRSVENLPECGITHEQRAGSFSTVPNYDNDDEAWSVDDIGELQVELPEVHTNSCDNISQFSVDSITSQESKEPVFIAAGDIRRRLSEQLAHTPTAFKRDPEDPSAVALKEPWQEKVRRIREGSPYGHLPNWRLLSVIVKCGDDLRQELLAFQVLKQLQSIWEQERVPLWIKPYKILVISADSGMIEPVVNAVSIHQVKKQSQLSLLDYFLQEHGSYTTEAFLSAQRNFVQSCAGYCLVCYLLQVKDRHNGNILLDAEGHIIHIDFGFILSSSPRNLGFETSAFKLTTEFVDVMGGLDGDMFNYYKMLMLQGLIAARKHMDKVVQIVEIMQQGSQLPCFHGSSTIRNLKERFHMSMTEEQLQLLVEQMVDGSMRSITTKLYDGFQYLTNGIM
# UniProt P53350, whole entry: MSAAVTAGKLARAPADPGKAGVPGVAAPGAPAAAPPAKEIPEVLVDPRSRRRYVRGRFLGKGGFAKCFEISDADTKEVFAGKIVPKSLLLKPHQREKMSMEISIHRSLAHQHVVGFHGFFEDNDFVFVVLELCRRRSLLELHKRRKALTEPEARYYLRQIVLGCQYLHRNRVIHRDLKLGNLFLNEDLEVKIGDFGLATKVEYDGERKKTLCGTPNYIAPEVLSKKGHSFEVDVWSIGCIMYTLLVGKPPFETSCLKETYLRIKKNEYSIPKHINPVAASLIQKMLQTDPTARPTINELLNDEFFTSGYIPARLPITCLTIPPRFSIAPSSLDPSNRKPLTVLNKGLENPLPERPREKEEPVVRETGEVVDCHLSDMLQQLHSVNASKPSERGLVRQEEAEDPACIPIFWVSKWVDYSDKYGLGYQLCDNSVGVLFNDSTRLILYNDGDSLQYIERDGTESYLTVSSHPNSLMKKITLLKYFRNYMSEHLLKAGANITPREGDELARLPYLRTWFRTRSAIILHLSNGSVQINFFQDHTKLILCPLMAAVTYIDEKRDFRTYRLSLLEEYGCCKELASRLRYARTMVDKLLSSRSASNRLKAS
# UniProt Q05397, whole entry, looked up: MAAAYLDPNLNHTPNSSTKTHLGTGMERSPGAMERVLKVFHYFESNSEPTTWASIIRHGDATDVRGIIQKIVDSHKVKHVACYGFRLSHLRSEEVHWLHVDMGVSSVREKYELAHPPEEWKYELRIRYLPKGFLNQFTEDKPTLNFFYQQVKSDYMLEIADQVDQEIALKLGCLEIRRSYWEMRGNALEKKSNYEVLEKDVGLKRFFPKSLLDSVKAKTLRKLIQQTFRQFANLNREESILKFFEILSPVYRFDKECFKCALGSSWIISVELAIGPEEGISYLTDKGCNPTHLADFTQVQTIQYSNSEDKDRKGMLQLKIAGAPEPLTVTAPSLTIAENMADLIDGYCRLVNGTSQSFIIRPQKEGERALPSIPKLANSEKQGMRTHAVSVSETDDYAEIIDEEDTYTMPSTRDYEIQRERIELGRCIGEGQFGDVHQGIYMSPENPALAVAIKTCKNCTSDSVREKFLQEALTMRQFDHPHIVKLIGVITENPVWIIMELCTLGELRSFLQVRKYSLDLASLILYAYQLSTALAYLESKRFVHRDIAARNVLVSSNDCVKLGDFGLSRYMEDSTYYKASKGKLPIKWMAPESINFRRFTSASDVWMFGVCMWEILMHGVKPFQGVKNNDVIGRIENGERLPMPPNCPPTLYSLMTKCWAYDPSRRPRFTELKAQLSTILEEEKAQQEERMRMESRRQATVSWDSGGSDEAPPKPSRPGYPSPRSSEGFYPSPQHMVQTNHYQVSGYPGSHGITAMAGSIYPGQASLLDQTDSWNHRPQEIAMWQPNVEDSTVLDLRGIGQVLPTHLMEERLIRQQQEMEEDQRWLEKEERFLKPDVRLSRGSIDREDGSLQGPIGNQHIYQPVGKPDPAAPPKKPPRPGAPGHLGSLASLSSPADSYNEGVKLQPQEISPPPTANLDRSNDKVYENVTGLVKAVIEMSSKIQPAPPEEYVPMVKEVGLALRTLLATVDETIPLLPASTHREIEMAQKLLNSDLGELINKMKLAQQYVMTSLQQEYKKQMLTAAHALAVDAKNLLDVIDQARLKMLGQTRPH
# UniProt Q14289, whole entry, looked up: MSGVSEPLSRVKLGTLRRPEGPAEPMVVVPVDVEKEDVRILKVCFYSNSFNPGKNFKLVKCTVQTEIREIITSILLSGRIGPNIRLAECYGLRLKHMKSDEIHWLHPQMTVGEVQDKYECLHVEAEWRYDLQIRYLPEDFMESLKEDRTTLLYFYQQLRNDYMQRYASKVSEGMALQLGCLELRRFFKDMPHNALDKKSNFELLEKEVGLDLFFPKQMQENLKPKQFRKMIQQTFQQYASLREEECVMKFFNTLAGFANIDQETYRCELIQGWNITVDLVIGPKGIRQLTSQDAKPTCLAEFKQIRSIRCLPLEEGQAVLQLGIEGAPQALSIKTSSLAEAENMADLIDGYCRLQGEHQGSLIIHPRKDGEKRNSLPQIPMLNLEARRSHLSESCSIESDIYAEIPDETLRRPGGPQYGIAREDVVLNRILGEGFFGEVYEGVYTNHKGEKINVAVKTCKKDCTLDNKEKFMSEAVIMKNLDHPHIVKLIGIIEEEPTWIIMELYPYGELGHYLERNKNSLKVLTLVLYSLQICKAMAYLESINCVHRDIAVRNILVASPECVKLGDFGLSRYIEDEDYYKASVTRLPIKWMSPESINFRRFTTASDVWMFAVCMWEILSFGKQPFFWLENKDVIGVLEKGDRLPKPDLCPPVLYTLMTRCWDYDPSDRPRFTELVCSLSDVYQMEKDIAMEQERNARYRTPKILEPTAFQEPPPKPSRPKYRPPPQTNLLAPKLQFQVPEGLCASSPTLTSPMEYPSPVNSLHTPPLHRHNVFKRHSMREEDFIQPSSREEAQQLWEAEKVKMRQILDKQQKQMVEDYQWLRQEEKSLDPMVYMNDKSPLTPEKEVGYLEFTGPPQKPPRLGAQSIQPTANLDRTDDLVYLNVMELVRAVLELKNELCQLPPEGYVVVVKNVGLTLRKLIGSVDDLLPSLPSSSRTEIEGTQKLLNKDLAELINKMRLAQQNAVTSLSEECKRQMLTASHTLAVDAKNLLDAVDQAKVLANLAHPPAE
# UniProt P07949, whole entry, looked up: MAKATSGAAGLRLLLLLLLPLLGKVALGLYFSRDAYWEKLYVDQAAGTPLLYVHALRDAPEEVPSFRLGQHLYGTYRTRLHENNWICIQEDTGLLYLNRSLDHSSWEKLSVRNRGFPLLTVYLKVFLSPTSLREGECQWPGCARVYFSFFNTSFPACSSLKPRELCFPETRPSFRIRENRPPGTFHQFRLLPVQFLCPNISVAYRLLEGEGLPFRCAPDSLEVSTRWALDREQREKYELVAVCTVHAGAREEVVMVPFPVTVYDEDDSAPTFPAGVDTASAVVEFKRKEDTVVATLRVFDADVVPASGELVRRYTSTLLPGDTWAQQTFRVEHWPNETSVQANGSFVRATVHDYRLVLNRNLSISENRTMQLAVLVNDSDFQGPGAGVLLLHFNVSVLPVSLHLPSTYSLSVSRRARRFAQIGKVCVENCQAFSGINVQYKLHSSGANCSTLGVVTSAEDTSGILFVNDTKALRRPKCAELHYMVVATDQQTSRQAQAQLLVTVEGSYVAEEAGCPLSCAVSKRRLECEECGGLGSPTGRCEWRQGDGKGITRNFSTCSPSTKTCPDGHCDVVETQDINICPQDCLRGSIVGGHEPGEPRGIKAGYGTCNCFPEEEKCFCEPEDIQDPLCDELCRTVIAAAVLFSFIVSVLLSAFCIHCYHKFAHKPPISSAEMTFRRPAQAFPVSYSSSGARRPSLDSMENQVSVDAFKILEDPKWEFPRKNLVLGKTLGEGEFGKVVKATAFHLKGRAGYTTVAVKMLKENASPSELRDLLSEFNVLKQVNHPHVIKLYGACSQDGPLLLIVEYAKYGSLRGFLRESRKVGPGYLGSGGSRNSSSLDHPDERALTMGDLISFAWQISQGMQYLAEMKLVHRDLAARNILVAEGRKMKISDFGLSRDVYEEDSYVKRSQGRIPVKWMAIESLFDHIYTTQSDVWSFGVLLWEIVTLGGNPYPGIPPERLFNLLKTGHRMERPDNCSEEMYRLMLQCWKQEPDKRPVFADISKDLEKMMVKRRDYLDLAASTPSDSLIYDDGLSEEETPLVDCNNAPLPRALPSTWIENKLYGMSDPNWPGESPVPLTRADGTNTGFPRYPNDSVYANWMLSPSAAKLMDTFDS
# UniProt Q9BRS2: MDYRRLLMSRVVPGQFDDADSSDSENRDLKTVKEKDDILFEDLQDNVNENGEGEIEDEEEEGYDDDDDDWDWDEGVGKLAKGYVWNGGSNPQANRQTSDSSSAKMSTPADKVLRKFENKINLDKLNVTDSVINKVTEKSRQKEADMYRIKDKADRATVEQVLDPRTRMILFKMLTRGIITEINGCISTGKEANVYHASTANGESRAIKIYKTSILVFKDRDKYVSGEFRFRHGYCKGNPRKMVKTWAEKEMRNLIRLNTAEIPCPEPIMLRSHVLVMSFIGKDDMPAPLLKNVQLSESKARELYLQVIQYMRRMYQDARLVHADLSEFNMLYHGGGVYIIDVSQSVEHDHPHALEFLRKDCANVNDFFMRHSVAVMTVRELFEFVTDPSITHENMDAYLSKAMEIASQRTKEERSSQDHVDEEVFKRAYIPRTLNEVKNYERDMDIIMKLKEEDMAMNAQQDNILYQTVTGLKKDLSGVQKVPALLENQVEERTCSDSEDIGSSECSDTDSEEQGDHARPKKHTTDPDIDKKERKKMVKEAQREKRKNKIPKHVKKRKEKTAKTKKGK
# Some of the results follow. Hit calls seldom repeat between salt and free forms of one compound.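 Kinases were expressed as nanoluciferase fusions in K562 cells and luminescence was read every 4 h between 2 and 18 h as percent of control, DMSO set to 100% and a positive control to 0%. A time point counts as decreased when the signal drops significantly (2 sigma). The hit call is the authors' own, does not follow from the count of time points alone, and its rule is not shown.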
# Key:
# Experiment in all cases: number of time points (of 5) at which kinase-Nluc abundance scored as decreased, DMSO-normalised (count); higher = more persistent destabilization
# Conditions in all cases: K562; 2-18 h
# NTRK3 = NTRK3 (UniProt Q16288)
# PAK4 = PAK4 (UniProt O96013)
# PBK = PBK (UniProt Q96KB5)
# PDGFRB = PDGFRB (UniProt P09619)
# PDK1 = PDK1 (UniProt Q15118)
# PDPK1 = PDPK1 (UniProt O15530)
# PIK4CA = PIK4CA (UniProt P42356)
# PIK4CB = PIK4CB (UniProt Q9UBF8)
# PLK1 = PLK1 (UniProt P53350)
# PRKAA1 = PRKAA1 (UniProt Q13131)
# PRKCA = PRKCA (UniProt P17252)
# PTK2 = PTK2 (UniProt Q05397)
# PTK2B = PTK2B (UniProt Q14289)
# RAF1 = RAF1 (UniProt P04049)
# [1] = molecular target: RAF1_S257L (clone: RAF1_mut) (UniProt P04049)
# RET = RET (UniProt P07949)
# [2] = molecular target: RET_M918T (clone: RET_mut) (UniProt P07949)
# RIOK1 = RIOK1 (UniProt Q9BRS2)
# RIPK1 = RIPK1 (UniProt Q13546)
# RIPK2 = RIPK2 (UniProt O43353)
SMILES,number of time points (NTRK3),number of time points (PAK4),number of time points (PBK),number of time points (PDGFRB),number of time points (PDK1),number of time points (PDPK1),number of time points (PIK4CA),number of time points (PIK4CB),number of time points (PLK1),number of time points (PRKAA1),number of time points (PRKCA),number of time points (PTK2),number of time points (PTK2B),number of time points (RAF1),number of time points [1],number of time points (RET),number of time points [2],number of time points (RIOK1),number of time points (RIPK1),number of time points (RIPK2)
COCCOCCc1c(C)c2cc(OC)c(O)c(C=O)c2oc1=O (10 µM),0,0,0,0,0,0,0,0,0,0,0,0,0,0,0,0,0,0,0,0
CN1CCN(c2cc(-c3ccncc3)c(-c3ccc4ccccc4c3)nn2)CC1 (10 µM),0,0,0,0,0,0,0,0,0,0,0,0,0,0,0,0,0,0,0,0
Nc1nccc(-c2c(-c3ccc(F)cc3)ncn2C2CCCCC2)n1 (10 µM),0,0,0,0,0,0,0,0,0,0,0,1,0,0,0,0,0,0,0,1
NC[C@@](O)(c1ccc(Cl)cc1)c1ccc(-c2cn[nH]c2)cc1 (10 µM),0,0,0,0,0,0,0,0,0,0,0,0,0,0,0,0,0,0,0,0
C=CC(=O)N1CCN(C(=O)CNc2cc(I)c(Cl)cc2O)CC1 [K-Ras(G12C) inhibitor 12] (10 µM),0,0,0,0,0,0,0,0,0,0,0,0,0,0,2,0,0,0,0,0
COc1cc2ncnc(Nc3cccc(I)c3)c2cc1OC (2.5 µM),0,0,0,0,0,0,0,0,0,0,0,0,0,0,0,0,0,0,0,0
COc1cc(-c2cc(OP(=O)(O)O)cc(-c3cc(OC)c(OC)c(OC)c3)c2)cc(OC)c1OC [Stafia-1] (10 µM),0,0,0,0,0,0,0,0,0,0,0,0,0,0,0,0,0,0,0,0
Cn1c(CNc2cccc(C(=O)NCc3ccccc3C(F)(F)F)c2)nnc1-c1ccncc1 (10 µM),0,0,0,2,0,0,0,0,0,0,0,0,0,0,0,0,0,0,0,0
Cc1cc(C(=O)Nc2nc3cccc(Cl)c3n2[C@@H]2CCCCN(C(=O)/C=C/CN(C)C)C2)ccn1 [Nazartinib] (10 µM),0,0,0,0,0,0,0,0,0,0,0,0,0,0,0,0,0,0,0,0
Cc1nn(C)cc1-c1nc2c(N3CCN(Cc4ccc(Cl)cc4)CC3)c(Cl)cnc2[nH]1 (10 µM),0,0,0,0,0,0,0,0,0,0,0,0,0,0,0,0,0,0,0,0
CNC(=O)c1ccc2c(C(=Nc3cccc(CN(C)C)c3)c3ccccc3)c(O)[nH]c2c1 [MEK inhibitor] (10 µM),0,0,0,0,0,0,0,0,0,0,0,0,0,0,0,0,0,0,0,0
CCNC(=O)C#Cc1ccc2c(C(=Nc3ccc(CN(C)C)cc3)c3ccccc3)c(O)[nH]c2c1 (2.5 µM),0,0,0,0,0,0,0,0,0,0,1,1,0,0,0,0,0,0,0,0
C[C@@H](Nc1ncnc2[nH]c(-c3ccc(O)cc3)cc12)c1ccccc1 (2.5 µM),0,0,0,0,0,0,0,0,0,0,0,0,0,0,0,0,0,0,0,0
COc1c(O)cc2oc(-c3ccc(O)cc3)cc(=O)c2c1O [Hispidulin] (10 µM),0,0,0,0,0,0,0,0,0,0,0,0,0,0,0,0,0,0,0,0
C#Cc1cccc(Nc2ncnc3cc(OC)c(NC(=O)N4C[C@H]5CCN(C)[C@H]5C4)cc23)c1 [Theliatinib] (10 µM),0,0,0,0,0,0,0,0,0,0,0,0,0,0,0,0,0,0,0,0
C[C@@H]1O[C@@H](Oc2cc(O)c3c(=O)c(O[C@@H]4O[C@@H](C)[C@H](O)[C@@H](O)[C@H]4O)c(-c4ccc(O)cc4)oc3c2)[C@H](O)[C@H](O)[C@H]1O [Kaempferitrin] (10 µM),0,0,0,0,0,0,0,0,0,0,0,0,0,0,0,0,0,0,0,0

# Some entries already given, showing only number of time points (PDPK1).
SMILES | number of time points (PDPK1)
COc1c(O)cc2oc(-c3ccc(O)cc3)cc(=O)c2c1O [Hispidulin] (10 µM) | 0
C#Cc1cccc(Nc2ncnc3cc(OC)c(NC(=O)N4C[C@H]5CCN(C)[C@H]5C4)cc23)c1 [Theliatinib] (10 µM) | 0
